Reference: publication PMC4285013
These are yes or no findings as the source states them, for the method shown. Binding can be weak; no strength is given.

Amino acid sequences for entries named in this document (tags omitted). A change or cut given only in a name is not applied to a line headed by its entry.
UniProt Q40168: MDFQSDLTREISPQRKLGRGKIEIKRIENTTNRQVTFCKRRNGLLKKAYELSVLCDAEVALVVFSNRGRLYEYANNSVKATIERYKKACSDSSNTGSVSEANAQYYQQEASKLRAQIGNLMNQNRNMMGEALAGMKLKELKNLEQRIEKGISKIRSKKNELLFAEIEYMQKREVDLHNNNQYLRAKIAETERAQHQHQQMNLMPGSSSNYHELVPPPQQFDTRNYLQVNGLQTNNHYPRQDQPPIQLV
UniProt Q8VXG0: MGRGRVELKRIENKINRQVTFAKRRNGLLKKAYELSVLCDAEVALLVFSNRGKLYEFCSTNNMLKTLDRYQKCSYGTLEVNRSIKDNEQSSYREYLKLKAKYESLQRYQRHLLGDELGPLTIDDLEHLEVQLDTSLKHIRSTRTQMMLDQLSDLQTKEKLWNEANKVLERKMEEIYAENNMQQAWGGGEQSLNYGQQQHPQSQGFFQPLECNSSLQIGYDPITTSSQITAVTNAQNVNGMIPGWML

How the values were obtained:
[1] = target: TAG1 (TOMATO AGAMOUS1) in pGBKT7 (yeast two-hybrid bait) (tomato (Solanum lycopersicum)) (UniProt Q40168); test: two-hybrid; Matchmaker Gold Yeast Two-Hybrid System (Clontech); SlHDACs in pGADT7, MADS-box genes in pGBKT7; growth on minimal medium -Leu/-Trp/-Ade/-His, also with 4 mg/mL X-alpha-Gal
[2] = target: TM29 (TOMATO MADS BOX29) in pGBKT7 (yeast two-hybrid bait) (tomato (Solanum lycopersicum)) (UniProt Q8VXG0); test: as above
[3] = target: GST-SIHDA1 (tomato (Solanum lycopersicum)); test: pull-down; GST fusion proteins on GST resin, TM29-His or TAG1-His added, 2 h at 4 C; 50 mM Tris-HCl pH 7.5, 100 mM NaCl, 0.25% Triton X-100, 35 mM beta-mercaptoethanol; immunoblot with anti-His antibody; both purified
[4] = target: GST-SIHDA3 (tomato (Solanum lycopersicum)); test: as above

binding [1] | binding [2] | binding [3] | binding [4] | Substance
binds | binds |  |  | SlHDA6 in pGADT7 (yeast two-hybrid prey) (from UniProt A0A3Q7GZP0) (enzyme)
 |  | binds | binds | TAG1-His (from UniProt Q40168 1-248)
 |  | binds |  | TM29-His (from UniProt Q8VXG0)
